From patent publication US20220364094

How the values were obtained:
[1] = test system: CD44E/s (CD44 splice variants CD44E and CD44s); experiment: binding assay; details: confocal imaging; membrane, cytoplasm and nucleus; minimal in vector control, none in Hep3B and Huh7; protein on the cell surface; protein details: stable overexpression in HKCI-C1 cells; label: Cy3; single-stranded DNA; variant of CD44-Apt1 (biotin)
[2] = test system: CD44E/s (CD44 splice variants CD44E and CD44s); experiment: flow cytometry; details: signal shift versus library; no shift on CD44-low MIHA, Hep3B, Huh7 cells; protein on the cell surface; protein details: stable overexpression in HKCI-C1 cells; label: Cy5; single-stranded DNA; variant of CD44-Apt1 (biotin)
CD44E = experiment: binding assay; details: PS (phosphodiester bonds replaced by phosphorothioate); in vivo xenograft homing in nude mice, 250 pmol iv; significant accumulation at 24 and 72 h versus parental Hep3B; protein on the cell surface; protein details: overexpressed in Hep3B xenograft; label: Cy3; single-stranded DNA; variant of CD44-Apt1 (biotin)
CD44s = experiment: binding assay; details: PS (phosphodiester bonds replaced by phosphorothioate); in vivo xenograft homing in nude mice, 250 pmol iv; 3-fold higher than control at 24 h (not significant), significant at 72 h; protein on the cell surface; protein details: overexpressed in Hep3B xenograft; label: Cy3; single-stranded DNA; variant of CD44-Apt1 (biotin)

Sequence: ATCCAGAGTGACGCAGCATCGCAACGATTAGTATGCACCCACCGTATAGGTTGGTCTCTGGACACGGTGGCTTAGT [CD44-Apt1 (Cy3)]
- binding result [1]: binds

Sequence: ATCCAGAGTGACGCAGCATCGCAACGATTAGTATGCACCCACCGTATAGGTTGGTCTCTGGACACGGTGGCTTAGT [CD44-Apt1 (Cy5)]
- binding result [2]: binds

Sequence: ATCCAGAGTGACGCAGCATCGCAACGATTAGTATGCACCCACCGTATAGGTTGGTCTCTGGACACGGTGGCTTAGT [CD44-Apt1 phosphorothioate (Cy3)]
- binding result (CD44E): binds
- binding result (CD44s): binds

Results from cells or extracts need not show a direct contact. For some of these results: For at least one entry, the source does not settle the construct or the ends of the probe.
